Values from PubChem BioAssay AID504808 (Drosophila RNAi Screening Center, 2011).
Screen: 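Chromatin factors that keep E2F targets switched off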 (primary screen). Cell system: Drosophila S2 cells. Reagent: long dsRNA against Drosophila genes. Read-out: 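Firefly luciferase driven by E2F sites, normalised to Renilla luciferase on the same minimal promoter, measured by plate reader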. Reading the numbers: E2F firefly: higher = more E2F reporter activity; Renilla normaliser: higher = more normaliser reporter signal. Call rule: 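Called active if the normalised E2F reporter went up by over 50%; the cutoff is arbitrary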.
The deposit covers about 21,000 reagents; below is an unselected part of those with a known target gene and a result. Of all reagents, 18 (0.084%) are marked active. 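Raw counts without plate normalisation, one of two replicates; the ratio scores behind the calls were not deposited.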 The numbers tell different reagents against one gene apart. A plus sign joins genes that one reagent is predicted to hit. The record does not give: the amount of reagent, the time to read-out.

| target gene | dsRNA no. | E2F firefly, rep 1 | Renilla normaliser, rep 1 | Call |
| --- | --- | --- | --- | --- |
| CG13321 | 1 | 1.07e5 | 3748 | inactive |
| CG13838 | 1 | 1.20e5 | 5599 | inactive |
| CG4286 | 1 | 99981 | 4665 | inactive |
| CG7766 | 1 | 8208 | 652 | inactive |
| CG1941 | 1 | 1.49e5 | 4486 | inactive |
| Cda5 | 1 | 1.33e5 | 5125 | inactive |
| Cda5 | 2 | 1.54e5 | 5392 | inactive |
| Cda5 | 3 | 1.66e5 | 5748 | inactive |
| CG10405 | 1 | 95187 | 5271 | inactive |
| CG33964 + CG13175 | 1 | 1.05e5 | 4257 | inactive |
| CG33964 + CG13175 | 2 | 96337 | 4076 | inactive |
| CG33964 + CG13175 | 3 | 1.05e5 | 4809 | inactive |
| Tdc2 | 1 | 1.01e5 | 3572 | inactive |
| CG13743 | 1 | 1.49e5 | 5509 | inactive |
| CG13743 | 2 | 1.34e5 | 4602 | inactive |
| RpLP0 | 1 | 83950 | 6081 | inactive |
| nwk | 1 | 1.05e5 | 4415 | inactive |
| pcm | 1 | 1.54e5 | 7167 | inactive |
| Nup54 | 1 | 2819 | 206 | inactive |
| CG18789 | 1 | 94211 | 3960 | inactive |
| yin | 1 | 1858 | 920 | inactive |
| CG2540 | 1 | 7855 | 796 | inactive |
| CG8654 | 1 | 63234 | 3501 | inactive |
| PPO2 | 1 | 3182 | 51 | inactive |
| RhoGAP15B | 1 | 1.54e5 | 5305 | inactive |
| RhoGAP15B | 2 | 2.55e5 | 8463 | inactive |
| CG13630 | 1 | 76837 | 4221 | inactive |
| grp + CG31782 (retired record) | 1 | 84631 | 3557 | inactive |
| fw | 1 | 78587 | 4912 | inactive |
| Ufd4 | 1 | 1.51e5 | 5469 | inactive |
| PIG-G | 1 | 78314 | 3318 | inactive |
| Boh1 | 1 | 1673 | 864 | inactive |
| CG9168 | 1 | 1.05e5 | 4464 | inactive |

Limited to “E2F firefly, rep 1” (9 entries from above):
CG33964 + CG13175 #2 = 96337
CG33964 + CG13175 #3 = 1.05e5
Tdc2 = 1.01e5
CG13743 #1 = 1.49e5
CG13743 #2 = 1.34e5
RpLP0 = 83950
nwk = 1.05e5
pcm = 1.54e5
Nup54 = 2819

The listing continues.
| target gene | dsRNA no. | E2F firefly, rep 1 | Renilla normaliser, rep 1 | Call |
| --- | --- | --- | --- | --- |
| CrebB | 1 | 1.28e5 | 5309 | inactive |
| CG2310 | 1 | 1.18e5 | 5875 | inactive |
| nrv2 | 1 | 1.33e5 | 5685 | inactive |
| nrv2 | 2 | 93942 | 4127 | inactive |
| Erasp | 1 | 70395 | 3128 | inactive |
| Gld | 1 | 1.39e5 | 5891 | inactive |
| Xbp1 | 1 | 50001 | 3757 | inactive |
| Dop2R | 1 | 1.38e5 | 6281 | inactive |
| Dop2R | 2 | 1.20e5 | 7449 | inactive |
| CG16903 | 1 | 1.28e5 | 6971 | inactive |
| Ir85a | 1 | 1.20e5 | 6490 | inactive |
| Obp50c + Obp50b | 1 | 1.24e5 | 4911 | inactive |
| rau | 1 | 85968 | 3909 | inactive |
| VhaPPA1-1 | 1 | 61766 | 3337 | inactive |
| CG4570 | 1 | 1.57e5 | 6845 | inactive |
| Gr64d + Gr64e | 1 | 97280 | 3783 | inactive |
| tapas | 1 | 80997 | 3926 | inactive |
| Cwc25 | 1 | 1.37e5 | 6065 | inactive |
| Pgant2 | 1 | 1.42e5 | 4933 | inactive |
| Cluap1 | 1 | 1.30e5 | 7197 | inactive |
| CG8664 | 1 | 1.56e5 | 5390 | inactive |
| CG6356 | 1 | 1.02e5 | 6440 | inactive |
| obst-E | 1 | 94353 | 4256 | inactive |
| EloC | 1 | 1.45e5 | 5138 | inactive |
| CG15725 | 1 | 1.42e5 | 6683 | inactive |
| CG8534 | 1 | 1.16e5 | 5476 | inactive |
| CG31740 | 1 | 1.38e5 | 6247 | inactive |
| bru2 | 1 | 1.30e5 | 5516 | inactive |
| bru2 | 2 | 1.00e5 | 5647 | inactive |
| bru2 | 3 | 1.17e5 | 5940 | inactive |
| bru2 | 4 | 1.04e5 | 5048 | inactive |
| bru2 | 5 | 89927 | 116 | inactive |
| CG14841 | 1 | 99132 | 5798 | inactive |
| HisT | 1 | 1.44e5 | 5388 | inactive |
| HisT | 2 | 1.37e5 | 5543 | inactive |
| HisT | 3 | 3047 | 130 | inactive |
| qsm | 1 | 1.51e5 | 7081 | inactive |
| qsm | 2 | 94129 | 3975 | inactive |
| Acsf2 | 1 | 1.52e5 | 4780 | inactive |
| Ipk2 | 1 | 1.76e5 | 6955 | inactive |
| Larp4B | 1 | 81721 | 4068 | inactive |
| alien | 1 | 85142 | 3651 | inactive |
| CG13671 | 1 | 82569 | 3152 | inactive |
| CG17049 (retired record) | 1 | 1.07e5 | 5083 | inactive |
| CG10029 | 1 | 1.21e5 | 6083 | inactive |
| mbf1 | 1 | 73868 | 3016 | inactive |
| CG7739 | 1 | 1.61e5 | 7186 | inactive |
| CG12115 | 1 | 65345 | 5837 | inactive |
| AstA-R2 | 1 | 1.10e5 | 5994 | inactive |
| MESK2 + CG10494 | 1 | 1.01e5 | 4049 | inactive |
| cni | 1 | 94558 | 4065 | inactive |
